Reference: PMC7314969, “Natural Transformation in Deinococcus radiodurans: A Genetic Analysis Reveals the Major Roles of DprA, DdrB, RecA, RecF, and RecO Proteins”
No constants are given. Whether binding was seen depends on the method and setting. For some of these results: Binding calls can cover weak binding; strength is not graded here.

T1: Deinococcus radiodurans RecA, full length (D. radiodurans) (UniProt P42443)
T1 sequence: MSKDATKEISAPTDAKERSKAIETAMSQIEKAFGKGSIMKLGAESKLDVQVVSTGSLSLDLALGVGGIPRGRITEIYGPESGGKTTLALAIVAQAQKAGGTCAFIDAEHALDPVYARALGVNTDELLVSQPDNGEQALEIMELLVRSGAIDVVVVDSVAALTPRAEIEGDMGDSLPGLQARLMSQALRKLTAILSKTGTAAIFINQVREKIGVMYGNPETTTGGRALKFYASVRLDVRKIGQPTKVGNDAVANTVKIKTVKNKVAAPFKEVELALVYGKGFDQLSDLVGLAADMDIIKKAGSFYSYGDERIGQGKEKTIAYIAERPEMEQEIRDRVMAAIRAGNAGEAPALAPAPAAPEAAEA

T2: Deinococcus radiodurans RecA-ΔN27 (D. radiodurans) (UniProt P42443)
T2 sequence: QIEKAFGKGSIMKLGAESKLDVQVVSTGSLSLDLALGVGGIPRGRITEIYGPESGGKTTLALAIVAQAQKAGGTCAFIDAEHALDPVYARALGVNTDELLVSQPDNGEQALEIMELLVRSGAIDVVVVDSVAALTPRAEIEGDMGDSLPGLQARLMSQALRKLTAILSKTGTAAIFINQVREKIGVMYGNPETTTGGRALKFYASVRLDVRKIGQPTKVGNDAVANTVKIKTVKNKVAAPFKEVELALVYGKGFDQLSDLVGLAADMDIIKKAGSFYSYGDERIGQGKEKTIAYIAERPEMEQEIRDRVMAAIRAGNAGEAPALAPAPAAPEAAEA


Key:
Test in all cases: two-hybrid; yeast strain pJ69-4A; Gal4-AD fusions (pGAD-C1) and Gal4-BD fusions (pGBDU-C1); clones spotted as 1/5 dilutions on synthetic complete medium lacking leucine, uracil and histidine; 5 days at 28°C
[1] = target: T1, Deinococcus radiodurans RecA, full length (D. radiodurans)
[2] = target: T2, Deinococcus radiodurans RecA-ΔN27 (D. radiodurans)
[3] = target: Deinococcus radiodurans DprA (D. radiodurans) (UniProt Q9RY31)

binding [1] | binding [2] | binding [3] | Molecule
no binding | binds | – | Deinococcus radiodurans DprA (from UniProt Q9RY31)
– | – | no binding | Deinococcus radiodurans DdrB (protein, UniProt Q9RY80 1-188) MLQIEFITDLGARVTVNVEHESRLLDVQRHYGRLGWTSGEIPSGGYQFPIENEADFDWSLIGARKWKSPEGEELVIHRGHAYRRRELEAVDSRKLKLPAAIKYSRGAKVSDPQHVREKADGDIEYVSLAIFRGGKRQERYAVPGGAAGNGQGRPAPQGQPAQARPQATAARPAARPPVQPGQEEETPF
– | – | no binding | Deinococcus radiodurans RecO (protein, UniProt Q9RW50 1-244) MRSRTANRSGIVIRRRVTPAGDIIVTLLTPQGKLKAIARGGVKGPLSSSLNLFHHVGVQVYQGPHNDLASVKQAVLEGALPTLAEPERYAFAHLMAEFADALFQEGEFSEQAFDLFAASLRGVAHQPDPEWVALVMSYKLLGLAGVIPQTARCARCGAPDPEHPDPLGGQLLCSKCAALPPYPPAVLDFLRHAVRRTVRASFEQPVPSADRPALWRALEKFVTVQVGGVHSWRQLVPSGVPVLS
